Laboratory results reported in paper PMC10850970, “Characterization of N-glycosylation and its functional role in SIDT1-Mediated RNA uptake”.
For some assays here: A negative result means that nothing was seen under these conditions. For some assays here: For at least one entry, the source does not settle the construct or the ends of the probe. For some assays here: The comparison behind a weaker result is the experiment's own reference, which may not be listed here.

Protein sequences, listed by entry. Tags and fused reporters are not part of them. Residues count along the entry.
UniProt Q9NXL6, 23-310: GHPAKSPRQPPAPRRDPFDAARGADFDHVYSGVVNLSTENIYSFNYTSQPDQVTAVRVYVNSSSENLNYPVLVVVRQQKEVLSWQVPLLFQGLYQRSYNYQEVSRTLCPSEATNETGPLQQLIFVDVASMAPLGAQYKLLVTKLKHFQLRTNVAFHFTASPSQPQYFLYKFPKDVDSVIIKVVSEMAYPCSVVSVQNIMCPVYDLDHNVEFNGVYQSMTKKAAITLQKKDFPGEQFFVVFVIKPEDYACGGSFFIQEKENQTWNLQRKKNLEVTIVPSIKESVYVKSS

Columns and labels:
[1] = target: SIDT1 ECD-Fc, PNGase F-treated (Homo sapiens) (UniProt Q9NXL6); assay: EMSA; settings: pH 5.5, PNGase F-treated, legend says FAM-labeled RNA; EMSA: 40 mM Tris-acetate pH 5.5, 100 mM NaCl, 2.5 mM EDTA, 5% glycerol, RT 30 min, 2.5 uM RNA; recombinant protein; residues 23-310; protein details: C-terminal Fc; label: 5'-FAM
[2] = target: SIDT1 ECD, kifunensine-treated (Homo sapiens) (UniProt Q9NXL6); assay: EMSA; settings: pH 5.5, kifunensine, no shift up to 20 uM; EMSA: 40 mM Tris-acetate pH 5.5, 100 mM NaCl, 2.5 mM EDTA, 5% glycerol, RT 30 min, 2.5 uM RNA; recombinant protein; residues 23-310; label: 5'-FAM

UCGCUUGGUGCAGAUCGGGAC [FAM-ssRNA 21 nt]
binding result [1]: binds more weakly
binding result [2]: no binding
